PubChem BioAssay AID1053208 – Peter MacCallum Cancer Centre, 2014
In all, the deposit lists about 17,000 reagents; shown is a part drawn at random. Of all reagents, 788 (4.7%) were called active. 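Calls rest on z-score classes alone; an extra cut-off of viability at most 70% of control was not applied to them.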 Unmarked entries are inactive. The numbers tell different reagents against one gene apart.

- Assay: 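Genes whose silencing cuts survival of bone tumour cells only with doxorubicin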 (primary screen)
- System: mouse osteosarcoma cells, early-passage culture from an engineered mouse model of fibroblastic bone tumour
- Reagents: siRNA pool against mouse genes, 40 nM
- Time to read-out: about 120 h (48 h before drug, then 72 h with drug)
- Conditions: doxorubicin 100 nM for 72 h, roughly 30-40% inhibitory dose
- Read-out: 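Viability read as ATP luminescence after 72 h of 100 nM doxorubicin or none, duplicate wells averaged, scaled to non-targeting siRNA, then expressed as robust z-scores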
- Scale: viability z-score with doxorubicin and doxorubicin viability vs non-targeting: higher = more viable cells under doxorubicin; viability z-score without drug: higher = more viable cells with knock-down alone; z-score of drug to no-drug ratio: higher = less drug sensitisation by knock-down
- Rule for the call: 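Called active if knock-down leaves viability unchanged without drug (z within -2 to 2) but lowers it with doxorubicin (z at or under -2)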

gene symbol | pool no. | combined z-score class | viability z-score with doxorubicin | viability z-score without drug | z-score of drug to no-drug ratio | doxorubicin viability vs non-targeting
Tars1 (threonyl-tRNA synthetase 1) | 1 | no change with or without drug | 1.01 | -0.17 | 1.35 | 1.03
Rorc (RAR-related orphan receptor gamma) | 1 | no change with or without drug | 0.67 | 0.51 | 0.45 | 1
Pgc (progastricsin (pepsinogen C)) | 1 | no change with or without drug | -0.9 | 0.84 | -1.35 | 0.86
Triml1 (tripartite motif family-like 1) | 1 | no change with or without drug | 0.34 | -0.17 | 0.56 | 0.97
Lgalsl (galectin like) | 1 | no change with or without drug | -0.22 | 0.34 | -0.34 | 0.92
Gpr37 (G protein-coupled receptor 37) | 1 | no change with or without drug | -0.22 | 0.17 | -0.22 | 0.92
Or56a5 (olfactory receptor family 56 subfamily A member 5) | 1 | no change with or without drug | 0.22 | -0.17 | 0.45 | 0.96
Ocstamp (osteoclast stimulatory transmembrane protein) | 1 | no change with or without drug | -0.22 | -0.51 | 0.22 | 0.92
Vmn1r32 (vomeronasal 1 receptor 32) | 1 | no change with or without drug | 1.91 | 1.85 | 0.79 | 1.11
Dusp5 (dual specificity phosphatase 5) | 1 | no change with or without drug | 1.91 | 0.17 | 2.02 | 1.11
Ctr9 (CTR9 homolog, Paf1/RNA polymerase II complex component) | 1 | low cell count with doxorubicin only (active) | -2.14 | -0.84 | -1.69 | 0.75
Macroh2a2 (macroH2A.2 histone) | 1 | no change with or without drug | 1.46 | 1.69 | 0.45 | 1.07
Th (tyrosine hydroxylase) | 1 | no change with or without drug | -0.56 | -0.84 | 0.11 | 0.89
Sstr1 (somatostatin receptor 1) | 1 | no change with or without drug | -1.8 | 0.17 | -1.91 | 0.78
Nr1h4 (nuclear receptor subfamily 1, group H, member 4) | 1 | no change with or without drug | 0.9 | 0.67 | 0.56 | 1.02
Tacc1 (transforming, acidic coiled-coil containing protein 1) | 1 | no change with or without drug | 0.9 | 1.18 | 0.22 | 1.02
Serpina6 (serine (or cysteine) peptidase inhibitor, clade A, member 6) | 1 | high cell count without drug only | 0.9 | 2.19 | -0.45 | 1.02
Fosl2 (fos-like antigen 2) | 1 | no change with or without drug | 0.45 | -0.51 | 1.01 | 0.98
Nmur1 (neuromedin U receptor 1) | 1 | no change with or without drug | -0.45 | -0.17 | -0.22 | 0.9
Miso1 (mitochondrial inner membrane subdomain organizer 1) | 1 | no change with or without drug | 1.57 | 0.84 | 1.12 | 1.08
Fbxl15 (F-box and leucine-rich repeat protein 15) | 1 | no change with or without drug | 0.67 | 0.17 | 0.67 | 1
Fhod3 (formin homology 2 domain containing 3) | 1 | high cell count without drug only | 0.22 | 2.02 | -0.9 | 0.96
Gml2 (glycosylphosphatidylinositol anchored molecule like 2) | 1 | no change with or without drug | 0.11 | 0.17 | 0.11 | 0.95
D830014E11Rik (RIKEN cDNA D830014E11 gene) | 1 | no change with or without drug | -0.9 | 0.67 | -1.24 | 0.86

Not a retest: 4 of the entries above.
gene symbol | pool no. | combined z-score class | viability z-score with doxorubicin | viability z-score without drug | z-score of drug to no-drug ratio | doxorubicin viability vs non-targeting
Tacc1 (transforming, acidic coiled-coil containing protein 1) | 1 | no change with or without drug | 0.9 | 1.18 | 0.22 | 1.02
Serpina6 (serine (or cysteine) peptidase inhibitor, clade A, member 6) | 1 | high cell count without drug only | 0.9 | 2.19 | -0.45 | 1.02
Fosl2 (fos-like antigen 2) | 1 | no change with or without drug | 0.45 | -0.51 | 1.01 | 0.98
Nmur1 (neuromedin U receptor 1) | 1 | no change with or without drug | -0.45 | -0.17 | -0.22 | 0.9

The results go on.
gene symbol | pool no. | combined z-score class | viability z-score with doxorubicin | viability z-score without drug | z-score of drug to no-drug ratio | doxorubicin viability vs non-targeting
Pomgnt1 | 1 | no change with or without drug | -1.57 | 1.18 | -2.25 | 0.8
Ptk7 (PTK7 protein tyrosine kinase 7) | 1 | high cell count without drug only | 1.35 | 2.36 | -0.11 | 1.06
Gm5114 (predicted gene 5114) | 1 | no change with or without drug | -0.67 | -0.34 | -0.34 | 0.88
Rab3gap1 (RAB3 GTPase activating protein subunit 1) | 1 | high cell count with doxorubicin only | 2.59 | 1.69 | 1.46 | 1.17
Myo19 (myosin XIX) | 1 | no change with or without drug | 1.35 | -0.67 | 2.02 | 1.06
Mki67 (antigen identified by monoclonal antibody Ki 67) | 1 | no change with or without drug | -0.11 | -1.01 | 0.67 | 0.93
Zfp608 (zinc finger protein 608) | 1 | no change with or without drug | -1.01 | -1.18 | -0.11 | 0.85
Rspo3 (R-spondin 3) | 1 | no change with or without drug | -0.22 | 1.01 | -0.79 | 0.92
Fcgr3 (Fc receptor, IgG, low affinity III) | 1 | no change with or without drug | -0.22 | -0.51 | 0.22 | 0.92
Rab23 (RAB23, member RAS oncogene family) | 1 | no change with or without drug | -0.11 | 0.67 | -0.45 | 0.93
Atp5f1d (ATP synthase F1 subunit delta) | 1 | low cell count with doxorubicin only (active) | -2.02 | 0.84 | -2.47 | 0.76
Atmin (ATM interactor) | 1 | no change with or without drug | 0.22 | -0.17 | 0.45 | 0.96
Pals2 (protein associated with LIN7 2, MAGUK family member) | 1 | no change with or without drug | -0.45 | -1.18 | 0.45 | 0.9
Pals2 (protein associated with LIN7 2, MAGUK family member) | 2 | no change with or without drug | 1.57 | 1.01 | 1.01 | 1.08
Ell (elongation factor RNA polymerase II) | 1 | high cell count without drug only | -1.12 | 2.7 | -2.47 | 0.84
Tril (TLR4 interactor with leucine-rich repeats) | 1 | no change with or without drug | -0.9 | 1.85 | -1.91 | 0.86
Gdf15 (growth differentiation factor 15) | 1 | no change with or without drug | 0.79 | 0.51 | 0.56 | 1.01
Ddx3y (DEAD box helicase 3, Y-linked) | 1 | no change with or without drug | 0.67 | 0.34 | 0.56 | 1
Khsrp (KH-type splicing regulatory protein) | 1 | no change with or without drug | 0.56 | 0.84 | 0.11 | 0.99
Vmn1r178 (vomeronasal 1 receptor 178) | 1 | low cell count with doxorubicin only (active) | -2.25 | -0.67 | -1.91 | 0.74
Ptpn1 (protein tyrosine phosphatase, non-receptor type 1) | 1 | no change with or without drug | 0.67 | 0.17 | 0.67 | 1
Fzd5 (frizzled class receptor 5) | 1 | no change with or without drug | -1.24 | 1.35 | -1.91 | 0.83
Relb (Relb proto-oncogene, NFKB subunit) | 1 | low cell count with doxorubicin only (active) | -2.02 | -1.52 | -1.12 | 0.76
Ttf1 (transcription termination factor, RNA polymerase I) | 1 | high cell count without drug only | 0.34 | 2.19 | -0.9 | 0.97
Or56b35 (olfactory receptor family 56 subfamily B member 35) | 1 | no change with or without drug | -1.12 | -1.18 | -0.34 | 0.84
Nxph3 (neurexophilin 3) | 1 | no change with or without drug | -0.56 | -1.35 | 0.45 | 0.89
Dusp3 | 1 | low cell count with and without drug | -2.7 | -2.53 | -1.24 | 0.7
Or10x1 (olfactory receptor family 10 subfamily X member 1) | 1 | no change with or without drug | -0.22 | -0.34 | 0.11 | 0.92
Cst8 (cystatin 8 (cystatin-related epididymal spermatogenic)) | 1 | no change with or without drug | 0.9 | 0.84 | 0.45 | 1.02
Ccdc25 (coiled-coil domain containing 25) | 1 | no change with or without drug | -0.11 | -0.67 | 0.45 | 0.93
H2-DMb1 (histocompatibility 2, class II, locus Mb1) | 1 | no change with or without drug | -1.57 | -1.18 | -0.79 | 0.8
Cyyr1 (cysteine and tyrosine-rich protein 1) | 1 | no change with or without drug | 0.34 | -0.51 | 0.79 | 0.97
Hebp1 (heme binding protein 1) | 1 | no change with or without drug | -1.01 | -0.17 | -0.9 | 0.85
Psapl1 (prosaposin-like 1) | 1 | no change with or without drug | 0.9 | 0.17 | 0.9 | 1.02
Tufm (Tu translation elongation factor, mitochondrial) | 1 | no change with or without drug | -0.67 | -0.84 | 0 | 0.88
Deaf1 (DEAF1, transcription factor) | 1 | no change with or without drug | -0.22 | -0.84 | 0.45 | 0.92
Kyat1 (kynurenine aminotransferase 1) | 1 | no change with or without drug | -0.67 | -0.51 | -0.22 | 0.88
Aars1 (alanyl-tRNA synthetase 1) | 1 | high cell count without drug only | 1.57 | 2.19 | 0.22 | 1.08
Dlx6 (distal-less homeobox 6) | 1 | no change with or without drug | 1.01 | -0.84 | 1.8 | 1.03
